Results taken from US6613536B1, “Synthetic peptides and pharmaceutical compositions comprising them for the treatment of systemic lupus erythematosus” (Yeda Research and Development Co. Ltd., priority 1995, dated 2003).
No constants are given. Whether binding was seen depends on the method and setting. Some entries that bind do so weakly or less than the wild type.

T1: MHC class II products (H-2d) on splenic antigen-presenting cells of BALB/c mice (mouse) (UniProt P04228)
T1 sequence (alpha): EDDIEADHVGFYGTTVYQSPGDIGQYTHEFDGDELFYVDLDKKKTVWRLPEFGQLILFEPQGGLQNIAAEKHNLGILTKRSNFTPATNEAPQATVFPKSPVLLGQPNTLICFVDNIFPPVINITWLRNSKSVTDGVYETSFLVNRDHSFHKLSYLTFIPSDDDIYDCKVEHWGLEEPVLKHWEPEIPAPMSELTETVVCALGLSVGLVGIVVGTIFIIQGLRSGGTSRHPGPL
T1 sequence (beta): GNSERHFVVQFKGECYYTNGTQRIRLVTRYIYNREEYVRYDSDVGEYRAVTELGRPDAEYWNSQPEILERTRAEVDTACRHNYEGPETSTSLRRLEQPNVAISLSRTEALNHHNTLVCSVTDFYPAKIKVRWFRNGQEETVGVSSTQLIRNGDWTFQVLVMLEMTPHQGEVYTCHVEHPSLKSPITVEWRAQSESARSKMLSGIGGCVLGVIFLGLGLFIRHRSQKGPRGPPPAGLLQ


Molecular target: T1, MHC class II products (H-2d) on splenic antigen-presenting cells of BALB/c mice (mouse)
Assay: flow cytometry, biotinylated peptide on BALB/c splenic APC (FIG. 8)

binding | Binder
binds | YYCARFLWEPYAMDYWGQGS (N-terminal biotinylation (biotinamidocaproate N-hydroxysuccinimide ester)) [biotinylated CDR-based peptide IIIa]
binds | TGYYMQWVKQSPEKSLEWIG (N-terminal biotinylation (biotinamidocaproate N-hydroxysuccinimide ester)) [biotinylated CDR-based peptide Ia]
